According to patent publication US6555652B1 (Kyogo Itoh, priority 1997, dated 2003):

Experiments:
Settings in all cases: whole synthesis, scale 100 mg resin
[1] = general procedure: Fmoc solid-phase peptide synthesis; Fmoc-Ile-Alko Resin (0.62 mmol/g)
[2] = general procedure: Fmoc solid-phase peptide synthesis; Fmoc-Leu-Alko Resin (0.54 mmol/g)
[3] = general procedure: Fmoc solid-phase peptide synthesis; Fmoc-Trp(Boc)-Alko Resin (0.65 mmol/g)

**Q.** For EYRGFTQDI, which isolated mass [1] is on record?
**A.** Its isolated mass is 47.8 mg.

**Q.** Which isolated mass [2] does the source give for EYRGFTQDL here?
**A.** Its isolated mass is 52.5 mg.

**Q.** Which isolated mass [3] does the source give for EYRGFTQDW here?
**A.** Its isolated mass is 14.0 mg.

No end group written: not given here.
